This passage reports binding results from publication PMC6370850.

Amino acid sequences for entries named in this document (tags omitted). A change or cut given only in a name is not applied to a line headed by its entry.
UniProt Q9UDY8: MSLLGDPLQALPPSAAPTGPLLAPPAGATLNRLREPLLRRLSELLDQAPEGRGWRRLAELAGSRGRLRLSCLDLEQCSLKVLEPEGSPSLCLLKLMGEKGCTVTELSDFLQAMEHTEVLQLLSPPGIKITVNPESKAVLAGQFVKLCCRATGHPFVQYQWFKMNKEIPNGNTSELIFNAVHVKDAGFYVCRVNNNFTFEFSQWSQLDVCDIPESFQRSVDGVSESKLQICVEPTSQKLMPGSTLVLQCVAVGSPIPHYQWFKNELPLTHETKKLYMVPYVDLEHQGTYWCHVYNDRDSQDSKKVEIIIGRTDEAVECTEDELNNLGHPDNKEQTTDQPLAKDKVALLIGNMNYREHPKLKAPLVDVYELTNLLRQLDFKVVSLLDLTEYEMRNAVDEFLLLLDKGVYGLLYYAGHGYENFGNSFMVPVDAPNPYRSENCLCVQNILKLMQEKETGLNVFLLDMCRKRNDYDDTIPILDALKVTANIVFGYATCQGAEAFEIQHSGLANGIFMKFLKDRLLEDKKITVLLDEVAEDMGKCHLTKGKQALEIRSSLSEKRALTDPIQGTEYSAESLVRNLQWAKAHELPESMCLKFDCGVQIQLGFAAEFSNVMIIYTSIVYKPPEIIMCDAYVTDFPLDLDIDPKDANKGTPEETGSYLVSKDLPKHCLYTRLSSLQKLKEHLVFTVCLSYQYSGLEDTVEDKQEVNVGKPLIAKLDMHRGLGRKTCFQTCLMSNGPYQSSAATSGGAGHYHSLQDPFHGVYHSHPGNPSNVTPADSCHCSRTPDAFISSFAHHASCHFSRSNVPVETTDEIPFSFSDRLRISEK
UniProt Q2TBA3: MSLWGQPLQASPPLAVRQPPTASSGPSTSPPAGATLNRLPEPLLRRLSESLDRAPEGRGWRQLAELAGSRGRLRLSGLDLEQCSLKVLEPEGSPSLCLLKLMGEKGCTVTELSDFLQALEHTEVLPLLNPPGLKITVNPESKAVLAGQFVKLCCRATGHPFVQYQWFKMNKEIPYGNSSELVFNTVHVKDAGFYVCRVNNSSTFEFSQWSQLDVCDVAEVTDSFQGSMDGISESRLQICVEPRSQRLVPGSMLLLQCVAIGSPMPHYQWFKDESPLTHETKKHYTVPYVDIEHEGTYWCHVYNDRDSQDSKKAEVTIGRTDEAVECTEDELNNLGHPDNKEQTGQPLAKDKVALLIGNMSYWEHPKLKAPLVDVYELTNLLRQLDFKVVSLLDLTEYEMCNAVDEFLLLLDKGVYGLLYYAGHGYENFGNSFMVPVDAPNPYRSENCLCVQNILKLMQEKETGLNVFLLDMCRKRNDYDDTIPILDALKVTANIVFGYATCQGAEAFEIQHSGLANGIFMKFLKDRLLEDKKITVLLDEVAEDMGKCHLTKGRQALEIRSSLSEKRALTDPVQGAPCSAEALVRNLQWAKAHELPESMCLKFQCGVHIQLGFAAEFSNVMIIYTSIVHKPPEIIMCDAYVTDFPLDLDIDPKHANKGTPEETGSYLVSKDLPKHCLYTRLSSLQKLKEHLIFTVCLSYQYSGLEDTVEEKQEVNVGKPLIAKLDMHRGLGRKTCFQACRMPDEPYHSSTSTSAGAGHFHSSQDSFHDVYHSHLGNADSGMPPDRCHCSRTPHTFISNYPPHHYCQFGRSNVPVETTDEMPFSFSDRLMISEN
UniProt P42227: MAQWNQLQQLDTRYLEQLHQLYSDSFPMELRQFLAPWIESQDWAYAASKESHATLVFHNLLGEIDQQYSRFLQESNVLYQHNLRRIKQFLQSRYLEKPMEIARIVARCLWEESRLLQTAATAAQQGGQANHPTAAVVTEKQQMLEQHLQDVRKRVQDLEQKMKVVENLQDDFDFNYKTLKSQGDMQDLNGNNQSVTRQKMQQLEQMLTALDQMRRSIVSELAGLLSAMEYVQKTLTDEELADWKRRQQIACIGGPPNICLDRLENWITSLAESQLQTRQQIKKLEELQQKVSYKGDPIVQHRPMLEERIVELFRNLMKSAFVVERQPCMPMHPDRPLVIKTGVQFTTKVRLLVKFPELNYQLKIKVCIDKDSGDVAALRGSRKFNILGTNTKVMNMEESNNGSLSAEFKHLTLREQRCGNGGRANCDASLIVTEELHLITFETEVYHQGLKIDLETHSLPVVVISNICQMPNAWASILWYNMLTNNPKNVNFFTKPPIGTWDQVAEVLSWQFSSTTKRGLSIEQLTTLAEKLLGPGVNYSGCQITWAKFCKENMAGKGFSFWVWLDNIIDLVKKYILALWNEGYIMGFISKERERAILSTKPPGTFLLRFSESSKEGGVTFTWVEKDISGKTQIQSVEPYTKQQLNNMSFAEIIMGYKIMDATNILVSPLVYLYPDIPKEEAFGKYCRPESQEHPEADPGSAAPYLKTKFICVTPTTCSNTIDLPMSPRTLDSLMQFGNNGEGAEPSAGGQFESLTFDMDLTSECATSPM

No constants are given. Whether binding was seen depends on the method and setting. Binding seen in cells or lysates may run through a third protein. Some entries that bind do so weakly or less than the wild type.

Test [1] deals with MALT1 isoform A WT with C-terminal Flag-Strep-Strep tag (UniProt Q9UDY8). The test is described as follows: pull-down; StrepTactin pulldown (ST-PD) of StrepII-tagged MALT1A from lysates of reconstituted MALT1KO Jurkat T cells in co-IP buffer (25 mM HEPES pH 7.5, 150 mM NaCl, 0.2% NP-40), 4 °C overnight; western blot. In general terms: In western blotting, separated proteins are transferred to a membrane and probed.

Test [2] addresses MALT1 isoform A K648R with C-terminal Flag-Strep-Strep tag (UniProt Q9UDY8). Described as above.
Test [3] has as its target Malt1 (endogenous, mouse CD4+ T cells) (mouse (endogenous in primary CD4+ T cells)) (UniProt Q2TBA3). Kind of test: co-IP; endogenous proteins; Malt1, Stat3 or IgG immunoprecipitation (Protein A Sepharose, washes in TD150 buffer with 150 mM NaCl) of total protein extracts from dLN CD4+ T cells of WT mice 13 days after EAE induction; for Stat3 also naive CD4+ T cells with or without IL-6.

Test [4] concerns the target Stat3 (endogenous, mouse CD4+ T cells) (mouse (endogenous in primary CD4+ T cells)) (UniProt P42227). The test is described as above.
For a further test, the target named is Flag-Stat3 (mouse) (UniProt P42227). The test is described as follows: co-IP; Flag or Xpress immunoprecipitation of protein extracts from HEK293T cells co-transfected with Flag-Stat3 and Xpress-Hectd3 constructs (HA-Ub co-transfected in Fig. 9a); immunoblot.

B1: BCL10 (endogenous, Jurkat T cells) (protein, UniProt O95999 1-233)
chain: MEPTAPSLTEEDLTEVKKDALENLRVYLCEKIIAERHFDHLRAKKILSREDTEEISCRTSSRKRAGKLLDYLQENPKGLDTLVESIRREKTQNFLIQKITDEVLKLRNIKLEHLKGLKCSSCEPFPDGATNNLSRSNSDESNFSEKLRASTVMYHPEGESSTTPFFSTNSSLNLPVLEVGRTENTIFSSTTLPRPGDPGAPPLPPDLQLEEEGTCANSSEMFLPLRSRTVSRQ
As for B1, the binding result in test [1] and in test [2] was “binds” throughout.

B2: CARMA1 (endogenous, Jurkat T cells) (protein, UniProt Q9BXL7 1-1154)
chain: MPGGGPEMDDYMETLKDEEDALWENVECNRHMLSRYINPAKLTPYLRQCKVIDEQDEDEVLNAPMLPSKINRAGRLLDILHTKGQRGYVVFLESLEFYYPELYKLVTGKEPTRRFSTIVVEEGHEGLTHFLMNEVIKLQQQMKAKDLQRCELLARLRQLEDEKKQMTLTRVELLTFQERYYKMKEERDSYNDELVKVKDDNYNLAMRYAQLSEEKNMAVMRSRDLQLEIDQLKHRLNKMEEECKLERNQSLKLKNDIENRPKKEQVLELERENEMLKTKNQELQSIIQAGKRSLPDSDKAILDILEHDRKEALEDRQELVNRIYNLQEEARQAEELRDKYLEEKEDLELKCSTLGKDCEMYKHRMNTVMLQLEEVERERDQAFHSRDEAQTQYSQCLIEKDKYRKQIRELEEKNDEMRIEMVRREACIVNLESKLRRLSKDSNNLDQSLPRNLPVTIISQDFGDASPRTNGQEADDSSTSEESPEDSKYFLPYHPPQRRMNLKGIQLQRAKSPISLKRTSDFQAKGHEEEGTDASPSSCGSLPITNSFTKMQPPRSRSSIMSITAEPPGNDSIVRRYKEDAPHRSTVEEDNDSGGFDALDLDDDSHERYSFGPSSIHSSSSSHQSEGLDAYDLEQVNLMFRKFSLERPFRPSVTSVGHVRGPGPSVQHTTLNGDSLTSQLTLLGGNARGSFVHSVKPGSLAEKAGLREGHQLLLLEGCIRGERQSVPLDTCTKEEAHWTIQRCSGPVTLHYKVNHEGYRKLVKDMEDGLITSGDSFYIRLNLNISSQLDACTMSLKCDDVVHVRDTMYQDRHEWLCARVDPFTDHDLDMGTIPSYSRAQQLLLVKLQRLMHRGSREEVDGTHHTLRALRNTLQPEEALSTSDPRVSPRLSRASFLFGQLLQFVSRSENKYKRMNSNERVRIISGSPLGSLARSSLDATKLLTEKQEELDPESELGKNLSLIPYSLVRAFYCERRRPVLFTPTVLAKTLVQRLLNSGGAMEFTICKSDIVTRDEFLRRQKTETIIYSREKNPNAFECIAPANIEAVAAKNKHCLLEAGIGCTRDLIKSNIYPIVLFIRVCEKNIKRFRKLLPRPETEEEFLRVCRLKEKELEALPCLYATVEPDMWGSVEELLRVVKDKIGEEQRKTIWVDEDQL
Take B2: the binding entry in test [1] and in test [2] was “binds” each time.

B3: Hectd3 (endogenous, mouse CD4+ T cells) (enzyme, UniProt Q3U487 1-861)
chain: MAGPGPGAALESPRQLLGRVRFLAEAARSLRAGLPLPAALAFVPREVLYKLYKDPAGPSRVLLPVWEAEGLGLRVGAVGAAPGTGSGPLRAARDSIELRRGACVRTTGEELCNGHGLWVKLTKEQLAEHLSDCSLDEGWLLVCRPAEGGARLVPIDTPDHLQRQQQLFGVDYRPVLRWEQVVDLTYSHRLGSRPQPAEAYTEAIQRLLYVPPTWTYECDEDLIHFLYDHLGKEDENLGSVKQYVESIDVSSYTEEFNVSCLTDSNADTYWESDGSQCQHWVRLTMKKGTIVKKLLLTVDTTDDNFMPKRVVVYGGEGDNLKKLSDVNIDETLIGDVCVLEDMTVHLPIIEIRIVECRDDGIDVRLRGVKIKSSRQRELGLNADLFQPASLVRYPRLEGTDPEVLYRRAVLLQRFIKILDSVLHHLVPAWDHTLGTFSEIKQVKQFLLLSRQRPSLVAQCLRDSESSKPSFMPRLYINRRLAMEHRACPSRDPACKNAVFTQVYEGLKPSDKYEKPLDYRWPMRYDQWWECKFIAEGIIDQGGGFRDSLADMSEELCPSSADTPVPLPFFVRTANQGNGTGEARDMYVPNPSCRDFAKYEWIGQLMGAALRGKEFLVLALPGFVWKQLSGEEVSWSKDFPAVDSVLVKLLEVMEGVDKETFEFKFGKELTFTTVLSDQQVVELIPGGTGIVVEYEDRSRFIQLVRKARLEESKEQVAAMQAGLLKVVPQAVLDLLTWQELEKKVCGDPEVTVDALRKLTRFEDFEPSDTRVQYFWEALNNFTNEDRSRFLRFVTGRSRLPARIYIYPDKLGYETTDALPESSTCSSTLFLPHYASAKVCEEKLRYAAYNCVAIDTDMSPWEE
Consider B3, for which the binding result in test [3] and in test [4] was “binds” throughout.

B4: Xpress-Hectd3 (enzyme, UniProt Q3U487 1-861)
chain: MAGPGPGAALESPRQLLGRVRFLAEAARSLRAGLPLPAALAFVPREVLYKLYKDPAGPSRVLLPVWEAEGLGLRVGAVGAAPGTGSGPLRAARDSIELRRGACVRTTGEELCNGHGLWVKLTKEQLAEHLSDCSLDEGWLLVCRPAEGGARLVPIDTPDHLQRQQQLFGVDYRPVLRWEQVVDLTYSHRLGSRPQPAEAYTEAIQRLLYVPPTWTYECDEDLIHFLYDHLGKEDENLGSVKQYVESIDVSSYTEEFNVSCLTDSNADTYWESDGSQCQHWVRLTMKKGTIVKKLLLTVDTTDDNFMPKRVVVYGGEGDNLKKLSDVNIDETLIGDVCVLEDMTVHLPIIEIRIVECRDDGIDVRLRGVKIKSSRQRELGLNADLFQPASLVRYPRLEGTDPEVLYRRAVLLQRFIKILDSVLHHLVPAWDHTLGTFSEIKQVKQFLLLSRQRPSLVAQCLRDSESSKPSFMPRLYINRRLAMEHRACPSRDPACKNAVFTQVYEGLKPSDKYEKPLDYRWPMRYDQWWECKFIAEGIIDQGGGFRDSLADMSEELCPSSADTPVPLPFFVRTANQGNGTGEARDMYVPNPSCRDFAKYEWIGQLMGAALRGKEFLVLALPGFVWKQLSGEEVSWSKDFPAVDSVLVKLLEVMEGVDKETFEFKFGKELTFTTVLSDQQVVELIPGGTGIVVEYEDRSRFIQLVRKARLEESKEQVAAMQAGLLKVVPQAVLDLLTWQELEKKVCGDPEVTVDALRKLTRFEDFEPSDTRVQYFWEALNNFTNEDRSRFLRFVTGRSRLPARIYIYPDKLGYETTDALPESSTCSSTLFLPHYASAKVCEEKLRYAAYNCVAIDTDMSPWEE
On to B4, for which the binding entry in the test with Flag-Stat3 (mouse) is listed as “binds”.
